# According to patent publication US6916472B2, “PON3 and uses thereof” (Regents of the University of Michigan, priority 2000, dated 2005):
# By UniProt entry, the sequences of proteins in these tests, tags left out. Residues count along the entry.
# UniProt Q9BGN0, 2-354 limits assumed: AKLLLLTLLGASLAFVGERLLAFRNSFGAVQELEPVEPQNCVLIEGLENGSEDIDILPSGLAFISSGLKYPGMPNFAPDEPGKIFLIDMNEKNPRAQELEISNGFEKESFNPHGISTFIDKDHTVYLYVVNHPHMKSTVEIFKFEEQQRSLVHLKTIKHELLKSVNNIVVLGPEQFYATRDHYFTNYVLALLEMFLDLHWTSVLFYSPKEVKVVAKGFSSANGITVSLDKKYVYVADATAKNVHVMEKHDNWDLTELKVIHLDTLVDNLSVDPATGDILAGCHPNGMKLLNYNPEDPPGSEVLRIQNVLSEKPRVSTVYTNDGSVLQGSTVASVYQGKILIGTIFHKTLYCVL
# UniProt P27170, whole entry Y185T: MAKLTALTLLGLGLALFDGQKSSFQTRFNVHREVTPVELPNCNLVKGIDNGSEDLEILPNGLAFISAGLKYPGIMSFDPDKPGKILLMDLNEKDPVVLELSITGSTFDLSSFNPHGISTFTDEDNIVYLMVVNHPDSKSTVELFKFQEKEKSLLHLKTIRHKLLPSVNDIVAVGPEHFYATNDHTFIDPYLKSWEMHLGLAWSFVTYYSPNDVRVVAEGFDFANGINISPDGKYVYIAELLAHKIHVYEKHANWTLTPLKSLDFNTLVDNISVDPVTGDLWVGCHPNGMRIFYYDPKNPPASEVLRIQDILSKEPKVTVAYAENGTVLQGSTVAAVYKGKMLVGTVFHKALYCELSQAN
# At least one structure is not confirmed: it was looked up by name or label, or the drawing left a doubt. Some of these results come from one statement about several compounds together.
# Key:
# rabbit serum PON3 = molecular target: T1, rabbit serum PON3 (Oryctolagus cuniculus, UniProt Q9BGN0); test: Hydrolytic activity of purified rabbit serum PON3 with paraoxon, aromatic esters and lactones; assay type: biochemical
# T1 construct: from tissue; host or cells: rabbit serum
# Procedure: (§1) Esterase activities with substrates: phenyl acetate, S-phenyl thioacetate, α-naphtyl acetate and paraoxon were measured as described by Kuo and La Du (Kuo and La Du, Drug Metab. Dispos., 23:335 [1995]; Qan et al., Drug Metab Dispos, 19:100-106 [1991]. For example, arylesterase activity is measured using a molar difference extinction coefficient (difference in extinction coefficients of phenol vs. phenol acetate) of 1,310 M^−1 cm^−1, at 270 nm with 1.0 mM phenyl acetate in 50 mM Tris/HCl (pH 8.0):1.0 mM CaCl2 buffer (Gan et al., supra). For the hydrolysis of thiophenyl acetate, the substrate is dissolved in methanol, and the reaction cuvettes contain 1.0 mM substrate in 50 mM Tris/HCl (pH 8.0):1.0 mM CaCl2 buffer. The product, thiophenol, reacts with 5,5′-dithiobis(2-nitrobenzoic acid), and activity is calculated from a molar difference extinction coefficient of 13,600 M^−1 cm^−1 at 412 nm (Augustinsson and Axenfors, Anal. Biochem., 48:428 [1972]). For the hydrolysis of α-naphtyl acetate, substrates are dissolved in ethylene glycol monomethyl ether, and the reaction cuvettes contain 0.5 mM substrate in 50 mM Tris/HCl (pH 8.0):1.0 mM CaCl2 buffer. Enzymatic activities are calculated from the molar extinction coefficients of 23,170 M^−1 cm^−1 at 235 nm. PON activity is measured with 1.0 mM paraoxon in 50 mM glycine:NaOH buffer (pH 10.5):1.0 mM CaCl2 with or without 1.0 M NaCl. Enzymatic activities were calculated from a molar extinction coefficient of 18,290 M^−1 cm^−1 at 412 nm (Gan et al., supra). All enzymatic assays are performed at 25° C. For each assay, 5 μl of purified PON (1.5-2.5 μg of enzyme protein) is added to an assay cuvette. For all substrates, one unit of enzymatic activity is defined as 1 μmol of substrate hydrolyzed/min.
# Hydrolysis of aromatic lactones was monitored by the increase in UV absorbance at 270 nm (dihydrocoumarin), 274 nm (2-coumaranone), and 290 nm (homogentisic acid lactone). Lactones were purchased from Sigma. In a typical experiment a cuvette contained 1 mM substrate (from a […] stock solution, dissolved in methanol) in 50 mM Tris/HCl (pH 8.0), 1 mM CaCl2 and 5-20 μl enzyme source in a total volume of 1 ml. The molar difference extinction coefficients (difference in extinction coefficients of substrate and product) used to calculate the rate of hydrolysis were 1295, 876, and 816 M^−1 cm^−1 for dihydrocoumarin, 2-coumaranone and homogentisic acid lactone, respectively.
# The hydrolysis of other lactones was followed by a calorimetric assay with phenol red (Billecke, et al., Chem Biol Interact, 119-120:251-256, [1999]). […] The rate of acid production was followed by monitoring the increase in absorbance at 422 nm as the color changed from red to yellow. […]
# rabbit serum PON1 = molecular target: T2, rabbit serum PON1 (Oryctolagus cuniculus, UniProt P27170); test: Hydrolytic activity of purified rabbit serum PON1 with paraoxon, aromatic esters and lactones; assay type: biochemical; settings: 25° C.
# T2 construct: PON 1 was purified further by pooling the fractions with highest arylesterase activity from a second DEAE column; from tissue; host or cells: rabbit serum
# Procedure: as §1, with “For the hydrolysis of α-naphtyl acetate, substrates are dissolved in ethylene glycol monomethyl ether, and the reaction cuvettes contain 0.5 mM substrate in 50 mM Tris/HCl (pH 8.0):1.0 mM CaCl2 buffer.” left out, “All enzymatic assays are performed at 25° C. For each assay, 5 μl of purified PON (1.5-2.5 μg of enzyme protein) is added to an assay cuvette. For all substrates, one unit of enzymatic activity is defined as 1 μmol of substrate hydrolyzed/min.” left out
# PON3 = molecular target: T3, PON3 (Oryctolagus cuniculus, UniProt Q9BGN0); test: Hydrolysis of statin lactones by PON3; assay type: biochemical, rabbit
# T3 construct: from tissue; host or cells: rabbit serum
# Procedure: The hydrolysis of the statin lactones (mevastatin, lovastatin and simvastatin) was analyzed by high performance liquid chromatography (HPLC) using a Beckman System Gold HPLC with a Model 126 Programmable Solvent Module, a Model 168 Diode Array Detector set at 238 nm, a Model 7125 Rheodyne manual injector valve with a 20 μl loop, and a Beckman ODS Ultrasphere column (C 18, 250×4.6 mm, 5 μm). Lovastatin (Mevacor) and simvastatin were purchased as 20 mg tablets from Merck, from which the lactones were extracted with chloroform, evaporated to dryness and redissolved in methanol. Mevastatin was purchased from Sigma.
# In a final volume of 1 ml, 10-200 μl of enzyme solution and 10 μl of substrate solution in methanol (0.5 mg/ml) were incubated at 25° C. in 50 mM Tris/HCl (pH 7.6), 1 mM CaCl2. […]
# Samples were eluted isocratically at a flow rate of 1.0 ml/min with a mobile phase consisting of the following: A=acetic acid/acetonitrile/water (2:249:249, v/v/v) and B=acetonitrile, in A/B ratios of 50/50, 45/55 and 40/60 for mevastatin, lovastatin and simvastatin, respectively. […] Response factors for the acid products were calculated from the peak heights after complete alkaline hydrolysis of the lactones in 0.02 M NAOH for 2-24 hours at 25° C.
Structure (SMILES),"rate of hydrolysis by PON3, fold higher than with phenyl acetate and paraoxon (rabbit serum PON3; purified rabbit serum PON3)","PON3 (rate of hydrolysis of substrate) (rabbit serum PON3; purified rabbit serum PON3, 25° C.) [µmol/min/mg]",PON1/PON3 Ratio (rabbit serum PON3; ratio of hydrolysis rates of PON1 and PON3),PON1 (rate of hydrolysis of substrate) (rabbit serum PON1) [µmol/min/mg],hydrolysis of lactone drug by PON3 (in words) (PON3)
O=C1Cc2ccccc2O1 [2-Coumaronone],30-200 fold,,,,
O=C1CCc2ccccc2O1 [Dihydrocoumarin],30-200 fold,220,0.9,192.3,
CCC(C)(C)C(=O)O[C@H]1C[C@@H](C)C=C2C=C[C@H](C)[C@H](CC[C@@H]3C[C@@H](O)CC(=O)O3)[C@H]21 [simvastatin],,,,,can also hydrolyse
